Measurements published in the supplement of paper PMC10849652.
Some of the results follow.

By UniProt entry, the sequences of proteins in these tests, tags left out. Where a name states a change or a piece, a line headed by the entry shows the natural chain unless it says otherwise.
UniProt Q9BYN0: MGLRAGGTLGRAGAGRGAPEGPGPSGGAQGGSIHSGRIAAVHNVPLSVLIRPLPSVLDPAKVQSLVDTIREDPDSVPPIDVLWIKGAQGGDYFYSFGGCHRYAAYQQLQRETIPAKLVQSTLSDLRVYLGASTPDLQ
UniProt Q9UH36: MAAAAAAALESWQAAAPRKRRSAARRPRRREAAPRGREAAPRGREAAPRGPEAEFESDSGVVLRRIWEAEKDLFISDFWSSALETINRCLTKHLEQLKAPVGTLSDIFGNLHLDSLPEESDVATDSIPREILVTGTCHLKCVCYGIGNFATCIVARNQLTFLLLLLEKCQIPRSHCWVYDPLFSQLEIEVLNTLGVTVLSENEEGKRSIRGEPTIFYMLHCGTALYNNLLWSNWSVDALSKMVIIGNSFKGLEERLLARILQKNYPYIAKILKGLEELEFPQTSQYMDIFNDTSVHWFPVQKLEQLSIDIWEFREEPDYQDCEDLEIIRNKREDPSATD
UniProt Q9P289: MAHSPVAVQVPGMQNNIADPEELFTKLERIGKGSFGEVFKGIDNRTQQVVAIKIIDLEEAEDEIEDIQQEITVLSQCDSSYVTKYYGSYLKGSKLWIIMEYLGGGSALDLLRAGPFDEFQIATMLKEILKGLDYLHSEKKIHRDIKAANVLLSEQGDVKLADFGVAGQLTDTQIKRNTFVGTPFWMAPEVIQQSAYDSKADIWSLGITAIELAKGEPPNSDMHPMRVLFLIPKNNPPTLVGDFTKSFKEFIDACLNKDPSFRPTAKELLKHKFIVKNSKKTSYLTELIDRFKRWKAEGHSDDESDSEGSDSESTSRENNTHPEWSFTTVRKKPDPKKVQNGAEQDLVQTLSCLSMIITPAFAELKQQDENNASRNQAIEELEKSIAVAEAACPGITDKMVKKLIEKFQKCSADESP
UniProt P84103: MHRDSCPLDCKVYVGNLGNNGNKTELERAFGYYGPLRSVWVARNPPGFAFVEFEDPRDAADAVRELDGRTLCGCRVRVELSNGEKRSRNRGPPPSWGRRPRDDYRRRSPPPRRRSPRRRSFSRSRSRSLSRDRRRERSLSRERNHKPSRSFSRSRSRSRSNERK
UniProt P15907: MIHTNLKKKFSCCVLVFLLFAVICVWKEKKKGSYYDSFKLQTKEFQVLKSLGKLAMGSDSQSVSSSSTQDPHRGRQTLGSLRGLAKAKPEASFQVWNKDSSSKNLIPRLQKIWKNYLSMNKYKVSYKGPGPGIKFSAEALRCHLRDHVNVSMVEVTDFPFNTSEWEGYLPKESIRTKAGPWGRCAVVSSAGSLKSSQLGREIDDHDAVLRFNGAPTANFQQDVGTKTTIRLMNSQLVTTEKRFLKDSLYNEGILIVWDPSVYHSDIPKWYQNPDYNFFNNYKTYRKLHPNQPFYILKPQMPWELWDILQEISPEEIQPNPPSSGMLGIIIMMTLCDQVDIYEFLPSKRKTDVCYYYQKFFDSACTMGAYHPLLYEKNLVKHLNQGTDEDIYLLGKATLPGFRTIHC
UniProt Q13242, whole entry, looked up: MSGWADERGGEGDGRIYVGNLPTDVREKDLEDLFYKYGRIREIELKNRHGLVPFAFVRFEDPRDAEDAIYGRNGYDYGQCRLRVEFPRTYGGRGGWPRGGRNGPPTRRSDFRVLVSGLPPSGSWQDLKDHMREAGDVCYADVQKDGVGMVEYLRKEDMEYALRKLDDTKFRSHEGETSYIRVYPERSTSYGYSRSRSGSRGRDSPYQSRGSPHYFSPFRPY
UniProt Q9UNL2: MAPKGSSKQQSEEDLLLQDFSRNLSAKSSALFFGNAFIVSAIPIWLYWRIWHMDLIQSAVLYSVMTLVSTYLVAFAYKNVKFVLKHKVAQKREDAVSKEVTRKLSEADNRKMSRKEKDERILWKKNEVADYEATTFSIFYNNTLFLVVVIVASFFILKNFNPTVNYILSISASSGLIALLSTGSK
UniProt O95772: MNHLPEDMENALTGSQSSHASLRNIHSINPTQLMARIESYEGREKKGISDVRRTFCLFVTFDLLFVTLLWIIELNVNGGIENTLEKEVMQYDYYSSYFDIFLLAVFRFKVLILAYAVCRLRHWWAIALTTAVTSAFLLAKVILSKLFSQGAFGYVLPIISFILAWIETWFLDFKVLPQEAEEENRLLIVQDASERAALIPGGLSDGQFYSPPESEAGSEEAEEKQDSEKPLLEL
UniProt Q8N1F8: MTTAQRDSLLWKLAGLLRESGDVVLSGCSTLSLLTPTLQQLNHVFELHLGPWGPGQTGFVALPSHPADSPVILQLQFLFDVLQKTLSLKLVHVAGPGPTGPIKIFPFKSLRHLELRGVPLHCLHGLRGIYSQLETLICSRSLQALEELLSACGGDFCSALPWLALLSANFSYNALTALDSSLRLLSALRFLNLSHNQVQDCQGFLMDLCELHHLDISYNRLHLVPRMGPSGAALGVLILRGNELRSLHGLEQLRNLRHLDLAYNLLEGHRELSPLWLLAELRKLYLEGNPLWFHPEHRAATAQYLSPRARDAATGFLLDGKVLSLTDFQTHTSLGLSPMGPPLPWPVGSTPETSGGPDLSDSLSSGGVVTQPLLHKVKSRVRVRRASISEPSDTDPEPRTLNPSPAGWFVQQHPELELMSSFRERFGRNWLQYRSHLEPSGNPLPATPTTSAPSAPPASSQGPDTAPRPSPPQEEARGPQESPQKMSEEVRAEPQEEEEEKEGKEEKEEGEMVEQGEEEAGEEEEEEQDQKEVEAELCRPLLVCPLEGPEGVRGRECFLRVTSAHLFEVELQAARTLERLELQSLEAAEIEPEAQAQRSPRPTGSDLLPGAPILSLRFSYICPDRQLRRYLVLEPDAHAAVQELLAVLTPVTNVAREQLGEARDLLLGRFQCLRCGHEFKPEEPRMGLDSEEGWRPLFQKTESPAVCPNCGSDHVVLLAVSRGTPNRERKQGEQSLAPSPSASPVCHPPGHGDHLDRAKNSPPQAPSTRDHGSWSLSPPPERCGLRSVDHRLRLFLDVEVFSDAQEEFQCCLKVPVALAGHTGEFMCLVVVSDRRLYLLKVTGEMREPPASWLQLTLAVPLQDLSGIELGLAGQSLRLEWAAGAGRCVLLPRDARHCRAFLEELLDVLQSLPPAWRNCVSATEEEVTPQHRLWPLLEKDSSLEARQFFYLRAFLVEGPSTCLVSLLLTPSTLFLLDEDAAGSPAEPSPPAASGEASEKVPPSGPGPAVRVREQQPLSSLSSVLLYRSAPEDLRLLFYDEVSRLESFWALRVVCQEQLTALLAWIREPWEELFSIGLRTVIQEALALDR
UniProt Q9BWW4: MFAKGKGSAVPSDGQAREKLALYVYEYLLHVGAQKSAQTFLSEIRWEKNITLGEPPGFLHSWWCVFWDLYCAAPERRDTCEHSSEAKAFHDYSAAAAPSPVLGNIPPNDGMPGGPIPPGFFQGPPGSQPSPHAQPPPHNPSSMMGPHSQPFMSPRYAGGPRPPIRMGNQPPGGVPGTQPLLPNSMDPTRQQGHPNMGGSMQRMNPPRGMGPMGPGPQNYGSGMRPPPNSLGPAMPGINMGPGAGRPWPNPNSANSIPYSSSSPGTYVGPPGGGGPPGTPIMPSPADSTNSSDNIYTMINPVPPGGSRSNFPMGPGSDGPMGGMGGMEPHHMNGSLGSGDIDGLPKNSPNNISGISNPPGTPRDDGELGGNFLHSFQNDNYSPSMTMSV
UniProt P35270: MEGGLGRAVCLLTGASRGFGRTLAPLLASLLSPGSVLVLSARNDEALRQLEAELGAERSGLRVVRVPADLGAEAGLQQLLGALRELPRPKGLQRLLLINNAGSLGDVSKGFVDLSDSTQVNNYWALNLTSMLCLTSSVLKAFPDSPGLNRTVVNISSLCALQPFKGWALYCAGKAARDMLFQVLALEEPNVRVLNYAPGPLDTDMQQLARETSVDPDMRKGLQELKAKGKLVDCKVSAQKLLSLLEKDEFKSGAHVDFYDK
UniProt Q9H254, whole entry, looked up: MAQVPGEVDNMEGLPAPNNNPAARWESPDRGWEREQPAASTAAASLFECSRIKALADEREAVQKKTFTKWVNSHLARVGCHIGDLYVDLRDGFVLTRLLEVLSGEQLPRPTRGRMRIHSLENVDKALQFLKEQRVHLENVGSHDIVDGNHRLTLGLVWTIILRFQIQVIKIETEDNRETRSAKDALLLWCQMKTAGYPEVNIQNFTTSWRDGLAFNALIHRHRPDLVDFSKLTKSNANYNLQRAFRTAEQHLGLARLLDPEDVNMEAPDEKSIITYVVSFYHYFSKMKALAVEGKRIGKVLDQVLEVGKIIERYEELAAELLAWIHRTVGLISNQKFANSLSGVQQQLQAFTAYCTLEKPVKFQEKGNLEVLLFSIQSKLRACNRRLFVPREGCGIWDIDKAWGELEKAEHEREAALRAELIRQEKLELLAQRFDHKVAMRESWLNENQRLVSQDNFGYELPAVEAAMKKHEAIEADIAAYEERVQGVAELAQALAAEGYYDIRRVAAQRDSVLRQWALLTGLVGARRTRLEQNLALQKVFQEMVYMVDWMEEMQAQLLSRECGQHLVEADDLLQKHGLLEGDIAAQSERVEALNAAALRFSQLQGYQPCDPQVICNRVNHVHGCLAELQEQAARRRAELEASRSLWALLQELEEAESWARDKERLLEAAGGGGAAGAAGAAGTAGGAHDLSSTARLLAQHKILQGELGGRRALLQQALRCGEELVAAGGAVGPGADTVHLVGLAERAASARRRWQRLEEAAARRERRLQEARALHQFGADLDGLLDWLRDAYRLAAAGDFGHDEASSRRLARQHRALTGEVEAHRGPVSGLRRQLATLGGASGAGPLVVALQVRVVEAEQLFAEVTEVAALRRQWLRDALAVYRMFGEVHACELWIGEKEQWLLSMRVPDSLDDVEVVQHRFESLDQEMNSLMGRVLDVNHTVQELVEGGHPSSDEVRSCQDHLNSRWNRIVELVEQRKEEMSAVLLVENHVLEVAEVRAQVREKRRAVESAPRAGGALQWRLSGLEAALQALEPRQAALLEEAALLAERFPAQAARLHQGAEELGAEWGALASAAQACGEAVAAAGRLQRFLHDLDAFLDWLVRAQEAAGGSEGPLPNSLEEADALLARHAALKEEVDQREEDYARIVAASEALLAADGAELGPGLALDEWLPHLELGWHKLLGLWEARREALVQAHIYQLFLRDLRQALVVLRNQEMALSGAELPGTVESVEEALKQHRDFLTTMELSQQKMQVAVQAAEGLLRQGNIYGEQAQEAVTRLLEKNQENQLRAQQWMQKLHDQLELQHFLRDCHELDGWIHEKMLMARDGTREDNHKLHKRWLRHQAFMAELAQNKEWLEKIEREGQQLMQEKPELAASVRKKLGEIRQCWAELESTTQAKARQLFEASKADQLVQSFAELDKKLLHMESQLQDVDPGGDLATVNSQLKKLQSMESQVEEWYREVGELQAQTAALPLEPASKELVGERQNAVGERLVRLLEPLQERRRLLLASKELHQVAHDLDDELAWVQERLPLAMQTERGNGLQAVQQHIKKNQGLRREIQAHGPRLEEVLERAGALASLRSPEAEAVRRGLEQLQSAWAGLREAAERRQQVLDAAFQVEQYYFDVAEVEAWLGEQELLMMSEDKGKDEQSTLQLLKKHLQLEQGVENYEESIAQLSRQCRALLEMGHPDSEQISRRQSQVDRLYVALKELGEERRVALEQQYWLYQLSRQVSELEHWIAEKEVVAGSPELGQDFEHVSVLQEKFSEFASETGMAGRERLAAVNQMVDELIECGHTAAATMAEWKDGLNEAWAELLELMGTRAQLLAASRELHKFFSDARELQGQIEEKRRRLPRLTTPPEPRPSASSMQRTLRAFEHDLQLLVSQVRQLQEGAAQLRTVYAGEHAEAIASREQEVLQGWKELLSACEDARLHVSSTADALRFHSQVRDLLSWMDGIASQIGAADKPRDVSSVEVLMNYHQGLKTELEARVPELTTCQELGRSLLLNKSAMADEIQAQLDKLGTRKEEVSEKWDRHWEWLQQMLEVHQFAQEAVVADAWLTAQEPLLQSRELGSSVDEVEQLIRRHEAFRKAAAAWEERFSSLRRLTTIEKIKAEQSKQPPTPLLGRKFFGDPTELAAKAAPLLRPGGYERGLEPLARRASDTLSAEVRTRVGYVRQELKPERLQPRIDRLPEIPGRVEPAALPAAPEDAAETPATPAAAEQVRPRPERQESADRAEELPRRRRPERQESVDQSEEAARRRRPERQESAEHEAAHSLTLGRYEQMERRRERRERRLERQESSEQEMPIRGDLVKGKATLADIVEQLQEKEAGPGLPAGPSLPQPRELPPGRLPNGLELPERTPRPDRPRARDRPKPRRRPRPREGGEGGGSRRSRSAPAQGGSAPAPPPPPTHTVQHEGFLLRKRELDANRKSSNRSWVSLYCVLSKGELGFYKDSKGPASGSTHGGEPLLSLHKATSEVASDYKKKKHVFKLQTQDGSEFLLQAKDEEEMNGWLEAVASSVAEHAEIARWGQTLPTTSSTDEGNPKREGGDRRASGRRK

Experiments:
Experiment in all cases: log2 fold change, soluble protein after heating vs DMSO (PISA); higher = thermal stabilisation; K562 cells, 10 uM, 30 min; active = over 0.2 and 3.5 SD of the protein, either way, in both replicates (recomputed)
[1] = compound: CS(=O)(=O)c1ccc(-c2cnc(N)c(C(=O)Nc3ccccc3)n2)cc1
Outline: (§1)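 K562 cells at 2×10^6 cells/mL were exposed to 10 μM compound for 30 min, then aliquots were heated for 3 min across 48°C-58°C, pooled, and extracted in PBS containing 0.5% NP-40 at 4°C. The supernatant after 21,000xg for 90 min was taken as soluble protein and measured by TMTpro 16plex LC-MS/MS with channel sums equalised. Thermal stability is reported relative to control samples, with values from duplicates. Fold changes are given on a log2 scale.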

[2] = compound: C[C@@H](Oc1cc(-c2cnn(C3CCNCC3)c2)cnc1N)c1c(Cl)ccc(F)c1Cl [crizotinib]
Outline: as §1

[3] = compound: C[C@@H]1COCCN1C2=NC(=NC(=C2)C3(CC3)S(=O)(=O)C)C4=C5C=CNC5=CC=C4
Outline: as §1

[4] = compound: C[C@H](C1=CC=C(C=C1)C(=O)NC2=C3C=CNC3=NC=C2)N
Outline: as §1

[5] = compound: Cc1cc(Nc2cc(CN3CCOCC3)c3nc(C)c(Cc4ccc(Cl)cc4F)n3n2)n[nH]1 [gandotinib]
Outline: as §1

[6] = compound: Cc1cc(SCc2sc(-c3ccc(C(F)(F)F)cc3)nc2C)ccc1OCC(=O)O
Outline: as §1

[7] = compound: Cc1ccc(-n2nc(C(C)(C)C)cc2NC(=O)Nc2ccc(OCCN3CCOCC3)c3ccccc23)cc1 [doramapimod]
Outline: as §1

[8] = compound: Cc1ccc(C(=O)N(CCCN)[C@@H](c2nc3cc(Cl)ccc3c(=O)n2Cc2ccccc2)C(C)C)cc1 [ispinesib]
Outline: as §1

[9] = compound: Cc1ccc(NC(=O)c2ccc(CN3CC[C@H](N(C)C)C3)c(C(F)(F)F)c2)cc1Nc1nccc(-c2cncnc2)n1 [bafetinib]
Outline: as §1

[10] = compound: Cc1cccc(CC(=O)N2CCc3c2ccc(-c2cn(C)c4ncnc(N)c24)c3F)n1
Outline: as §1

[11] = compound: Cc1cn(-c2cc(NC(=O)c3ccc(C)c(Nc4nccc(-c5cccnc5)n4)c3)cc(C(F)(F)F)c2)cn1 [nilotinib]
Outline: as §1

[12] = compound: Cc1nc(Nc2n[nH]c3c2CN(C(=O)N[C@H](CN(C)C)c2ccccc2)C3(C)C)c2sccc2n1
Outline: as §1

[13] = compound: Cc1nc(Nc2ncc(C(=O)Nc3c(C)cccc3Cl)s2)cc(N2CCN(CCO)CC2)n1 [dasatinib]
Outline: as §1

[14] = compound: Cc1ncc(-c2ccnc(Nc3ccc(S(C)(=O)=O)cc3)n2)n1C(C)C
Outline: as §1

[15] = compound: Cn1cc(-c2ccc3c(c2)CCN3C(=O)Cc2cccc(C(F)(F)F)c2)c2c(N)ncnc21
Outline: as §1

[16] = compound: Cn1cc(-c2ccc3nnc(C(F)(F)c4ccc5ncccc5c4)n3n2)cn1
Outline: as §1

[17] = compound: Cn1cncc1[C@@](N)(c1ccc(Cl)cc1)c1ccc2c(c1)c(-c1cccc(Cl)c1)cc(=O)n2C [tipifarnib]
Outline: as §1

[18] = compound: FC(F)(F)c1ccc(/C=C/c2nc(COc3ccc(CCCCn4ccnn4)cc3)co2)cc1 [mubritinib]
Outline: as §1

[19] = compound: Cc1cc(Nc2cc(N3CCN(C)CC3)nc(Sc3ccc(NC(=O)C4CC4)cc3)n2)n[nH]1 [tozasertib]
Outline: as §1

[20] = compound: C[C@H](Nc1ncnc2nc[nH]c12)c1cc2cccc(Cl)c2c(=O)n1-c1ccccc1 [duvelisib]
Outline: as §1

Measured: log2 fold change

SSB (UniProt P05455)
inactive: [1] -0.159 | [2] 0.022 | [3] -0.085 | [4] -0.05 | [5] -0.103 | [6] 0.003 | [7] 0.013 | [8] -0.02 | [9] -0.022 | [10] -0.018 | [11] -0.057 | [12] -0.125 | [13] -0.06 | [14] -0.123 | [15] -0.048 | [16] -0.02 | [17] 0.051 | [18] -0.111

SRCAP (UniProt Q6ZRS2)
inactive: [1] -0.015 | [2] -0.276 | [4] -0.111 | [5] -0.069 | [6] -0.035 | [7] 0.051 | [8] 0 | [9] -0.057 | [10] -0.001 | [11] 0.072 | [12] 0.152 | [13] -0.038 | [14] -0.007 | [15] -0.061 | [16] 0.037 | [17] 0.083 | [18] 0.05

STAM2 (UniProt O75886)
inactive: [1] 0.114 | [2] -0.008 | [3] 0.041 | [4] -0.049 | [5] -0.126 | [6] 0.028 | [7] -0.022 | [8] -0.049 | [9] -0.067 | [10] 0.014 | [11] 0.007 | [12] -0.077 | [13] 0.044 | [14] -0.008 | [15] 0.016 | [16] 0.009 | [17] -0.012 | [18] 0.019

SRXN1 (UniProt Q9BYN0)
inactive: [1] 0.009 | [2] -0.295 | [3] 0.09 | [4] -0.091 | [5] 0.01 | [7] 0.076 | [8] -0.16 | [9] -0.011 | [10] -0.157 | [11] -0.017 | [12] -0.088 | [14] 0.093 | [15] 0.134 | [16] 0.056 | [17] -0.149 | [18] 0.127

SRRD (UniProt Q9UH36)
inactive: [1] 0.093 | [2] 0.149 | [3] 0.106 | [19] -0.063 | [7] 0.221 | [9] 0.064 | [11] -0.085 | [12] -0.147 | [14] -0.036 | [17] 0.077 | [18] 0.408

STK26 (UniProt Q9P289)
inactive: [1] -0.019 | [3] 0.123 | [4] 0.049 | [5] -0.061 | [6] -0.01 | [7] -0.034 | [8] -0.146 | [9] -0.057 | [10] 0.026 | [11] -0.089 | [12] 0.198 | [14] -0.057 | [15] -0.058 | [16] 0.015 | [17] -0.036 | [18] -0.036
active: [2] -0.308 | [13] -0.319

SRSF3 (UniProt P84103)
active: [12] -0.544
inactive: [1] -0.081 | [2] 0.061 | [3] -0.27 | [4] 0.128 | [5] 0.247 | [6] -0.024 | [7] -0.019 | [8] -0.095 | [9] 0.126 | [10] -0.028 | [11] 0.075 | [13] 0.173 | [14] 0.082 | [15] -0.199 | [16] -0.154 | [17] 0.134 | [18] -0.097

ST6GAL1 (UniProt P15907)
inactive: [1] -0.064 | [2] -0.189 | [3] -0.005 | [4] 0.037 | [5] 0.014 | [6] 0.018 | [7] 0.083 | [8] 0.002 | [9] 0.001 | [10] 0.029 | [11] 0.168 | [12] -0.048 | [13] 0.131 | [14] -0.001 | [15] 0.007 | [16] -0.02 | [17] 0.128 | [18] -0.023

STAT2 (UniProt P52630)
inactive: [1] 0.125 | [2] -0.055 | [4] 0.248 | [20] -0.063 | [5] 0.068 | [19] -0.213 | [6] 0.161 | [7] 0.076 | [8] -0.632 | [9] 0.161 | [10] 0.199 | [13] -0.025 | [15] -0.403 | [16] -0.235 | [18] -0.131

SRSF9 (UniProt Q13242)
inactive: [1] -0.11 | [2] 0.058 | [3] -0.539 | [4] 0.389 | [5] 0.4 | [6] -0.048 | [7] 0.26 | [8] -0.255 | [9] 0.166 | [10] -0.02 | [11] 0.014 | [12] 0.05 | [13] 0.422 | [14] 0.001 | [15] -0.377 | [16] -0.129 | [17] 0.298 | [18] -0.189

SSR3 isoform 2 (UniProt Q9UNL2)
inactive: [1] 0.021 | [2] -0.043 | [3] 0.05 | [5] 0.281 | [6] -0.038 | [7] 0.034 | [8] 0.021 | [9] -0.064 | [10] 0.034 | [11] -0.006 | [12] 0.029 | [13] 0.006 | [14] -0.047 | [15] 0.107 | [16] -0.167 | [17] 0.084 | [18] 0.049
active: [4] -0.458

STARD3NL (UniProt O95772)
inactive: [1] -0.011 | [3] 0.055 | [4] -0.067 | [5] -0.14 | [6] -0.058 | [7] 0.063 | [8] -0.256 | [9] 0.011 | [10] -0.008 | [11] -0.007 | [12] 0.027 | [13] 0.075 | [14] -0.001 | [15] -0.048 | [16] 0.025 | [17] -0.064 | [18] -0.006
active: [2] -0.448

STARD9 (UniProt Q9P2P6)
inactive: [1] 0.144 | [2] 0.141 | [3] 0.012 | [4] 0.049 | [5] 0.04 | [6] 0.028 | [7] 0.074 | [8] -0.146 | [9] 0.012 | [10] -0.029 | [11] 0.016 | [12] 0.157 | [13] 0.091 | [14] 0.002 | [15] 0.076 | [16] 0.047 | [17] 0.07 | [18] 0.129

Quoted from above (2 entries):
STAT2 (UniProt P52630)
inactive: [1] 0.125 | [2] -0.055 | [4] 0.248 | [20] -0.063 | [5] 0.068 | [19] -0.213 | [6] 0.161 | [7] 0.076 | [8] -0.632 | [9] 0.161 | [10] 0.199 | [13] -0.025 | [15] -0.403 | [16] -0.235 | [18] -0.131

SRSF9 (UniProt Q13242)
inactive: [1] -0.11 | [2] 0.058 | [3] -0.539 | [4] 0.389 | [5] 0.4 | [6] -0.048 | [7] 0.26 | [8] -0.255 | [9] 0.166 | [10] -0.02 | [11] 0.014 | [12] 0.05 | [13] 0.422 | [14] 0.001 | [15] -0.377 | [16] -0.129 | [17] 0.298 | [18] -0.189

The results go on.

STK11IP (UniProt Q8N1F8)
active: [2] -0.869
inactive: [1] -0.21 | [3] -0.078 | [4] -0.124 | [5] -0.002 | [6] 0.021 | [7] 0.006 | [9] -0.06 | [10] 0.111 | [11] -0.081 | [12] 0.058 | [13] -0.19 | [14] 0.051 | [15] -0.068 | [17] 0.034 | [18] -0.071

SSBP3 (UniProt Q9BWW4)
inactive: [1] -0.066 | [3] 0.188 | [4] -0.147 | [20] 0.071 | [5] 0.043 | [19] 0.016 | [6] 0.009 | [8] 0.199 | [9] 0.037 | [10] -0.063 | [11] 0.003 | [12] -0.016 | [13] -0.001 | [14] 0 | [15] 0.112 | [16] 0.145 | [17] -0.092 | [18] 0.021

STEAP3 isoform 2 (UniProt Q658P3)
inactive: [1] 0.065 | [2] -0.003 | [3] 0.022 | [4] -0.013 | [5] -0.032 | [6] 0.012 | [7] 0.003 | [8] -0.159 | [9] -0.044 | [10] 0.058 | [11] -0.001 | [12] -0.061 | [13] -0.028 | [14] 0.03 | [15] 0.039 | [16] 0.11 | [17] -0.085 | [18] -0.034

SPR (UniProt P35270)
inactive: [1] -0.006 | [2] 0.125 | [3] 0.058 | [4] -0.059 | [5] 0.288 | [6] -0.025 | [7] -0.05 | [8] -0.103 | [9] -0.062 | [10] -0.102 | [11] -0.04 | [12] -0.012 | [14] -0.029 | [15] 0.144 | [16] 0.298 | [18] -0.083
active: [13] 0.467 | [17] 0.499

SPTBN4 (UniProt Q9H254)
inactive: [1] 0.026 | [2] 0.09 | [3] -0.024 | [4] 0.098 | [5] -0.03 | [6] -0.003 | [7] -0.03 | [8] 0.06 | [9] -0.036 | [10] -0.044 | [11] -0.167 | [12] 0.027 | [13] 0.017 | [14] -0.04 | [15] -0.014 | [16] 0.03 | [17] -0.09 | [18] 0.066
